One data set is described as follows: in vivo. As to conditions: rat, po.
The test system of data set [1] is gastric emptying. Description: animal or person. As to conditions: Mus musculus, 1 h, read-out: Percentage inhibition of gastric emptying.
The test system of data set [2] is gastric emptying. Description: animal or person. The settings on record: Rattus norvegicus, 1 h, read-out: Percentage inhibition of gastric emptying.
Data set [3] has as its system gastric emptying. Put plainly: animal or person. The settings on record: Macaca fascicularis, po, 1 h, read-out: Percentage inhibition of gastric emptying.

Structures are written as SMILES. Where two headings read alike, the source gives them in different places.

The term LD50 denotes the dose expected to kill half of the subjects tested. A word on the inhibition: it is the drop in the measured response relative to a control, in per cent.

Regarding `CCCn1c(=O)c(C)cn2nc(N)nc12` [Emetic of Formula III, 2-amino-6-methyl-5-oxo-4-n-propyl-4,5-dihydro-s-triazolo [1,5-a] pyrimidine], in “in vivo”, the LD50 amounted to 160 mg/kg. The inhibition at 2.5 mg/kg in the data set with gastric emptying [1] (po) is 91%. Further, the inhibition at 1 mg/kg worked out at 86% in the data set with gastric emptying [1] (sc), 68% in the data set on gastric emptying [2] (po) and 75% with gastric emptying [2] (sc). The inhibition at 0.1 mg/kg with gastric emptying [2] (po) was 37%; with gastric emptying [2] (sc) it was 48%. The inhibition at 0.2 mg/kg in the data set on gastric emptying [3] amounted to 61%.

Source of the values: patent publication US4269820A, “Safeguarded toxic chemical compositions containing effective emesis-inducing S-triazolo-[1,5-α]pyrimidine derivatives” (priority 1977, dated 1981).
